Results from publication PMC8989540.
No constants are given. Whether binding was seen depends on the method and setting. In cells and extracts the contact can be indirect. Some entries that bind do so weakly or less than the wild type.

Protein sequences, listed by entry. Tags and fused reporters are not part of them.
UniProt Q3URK3: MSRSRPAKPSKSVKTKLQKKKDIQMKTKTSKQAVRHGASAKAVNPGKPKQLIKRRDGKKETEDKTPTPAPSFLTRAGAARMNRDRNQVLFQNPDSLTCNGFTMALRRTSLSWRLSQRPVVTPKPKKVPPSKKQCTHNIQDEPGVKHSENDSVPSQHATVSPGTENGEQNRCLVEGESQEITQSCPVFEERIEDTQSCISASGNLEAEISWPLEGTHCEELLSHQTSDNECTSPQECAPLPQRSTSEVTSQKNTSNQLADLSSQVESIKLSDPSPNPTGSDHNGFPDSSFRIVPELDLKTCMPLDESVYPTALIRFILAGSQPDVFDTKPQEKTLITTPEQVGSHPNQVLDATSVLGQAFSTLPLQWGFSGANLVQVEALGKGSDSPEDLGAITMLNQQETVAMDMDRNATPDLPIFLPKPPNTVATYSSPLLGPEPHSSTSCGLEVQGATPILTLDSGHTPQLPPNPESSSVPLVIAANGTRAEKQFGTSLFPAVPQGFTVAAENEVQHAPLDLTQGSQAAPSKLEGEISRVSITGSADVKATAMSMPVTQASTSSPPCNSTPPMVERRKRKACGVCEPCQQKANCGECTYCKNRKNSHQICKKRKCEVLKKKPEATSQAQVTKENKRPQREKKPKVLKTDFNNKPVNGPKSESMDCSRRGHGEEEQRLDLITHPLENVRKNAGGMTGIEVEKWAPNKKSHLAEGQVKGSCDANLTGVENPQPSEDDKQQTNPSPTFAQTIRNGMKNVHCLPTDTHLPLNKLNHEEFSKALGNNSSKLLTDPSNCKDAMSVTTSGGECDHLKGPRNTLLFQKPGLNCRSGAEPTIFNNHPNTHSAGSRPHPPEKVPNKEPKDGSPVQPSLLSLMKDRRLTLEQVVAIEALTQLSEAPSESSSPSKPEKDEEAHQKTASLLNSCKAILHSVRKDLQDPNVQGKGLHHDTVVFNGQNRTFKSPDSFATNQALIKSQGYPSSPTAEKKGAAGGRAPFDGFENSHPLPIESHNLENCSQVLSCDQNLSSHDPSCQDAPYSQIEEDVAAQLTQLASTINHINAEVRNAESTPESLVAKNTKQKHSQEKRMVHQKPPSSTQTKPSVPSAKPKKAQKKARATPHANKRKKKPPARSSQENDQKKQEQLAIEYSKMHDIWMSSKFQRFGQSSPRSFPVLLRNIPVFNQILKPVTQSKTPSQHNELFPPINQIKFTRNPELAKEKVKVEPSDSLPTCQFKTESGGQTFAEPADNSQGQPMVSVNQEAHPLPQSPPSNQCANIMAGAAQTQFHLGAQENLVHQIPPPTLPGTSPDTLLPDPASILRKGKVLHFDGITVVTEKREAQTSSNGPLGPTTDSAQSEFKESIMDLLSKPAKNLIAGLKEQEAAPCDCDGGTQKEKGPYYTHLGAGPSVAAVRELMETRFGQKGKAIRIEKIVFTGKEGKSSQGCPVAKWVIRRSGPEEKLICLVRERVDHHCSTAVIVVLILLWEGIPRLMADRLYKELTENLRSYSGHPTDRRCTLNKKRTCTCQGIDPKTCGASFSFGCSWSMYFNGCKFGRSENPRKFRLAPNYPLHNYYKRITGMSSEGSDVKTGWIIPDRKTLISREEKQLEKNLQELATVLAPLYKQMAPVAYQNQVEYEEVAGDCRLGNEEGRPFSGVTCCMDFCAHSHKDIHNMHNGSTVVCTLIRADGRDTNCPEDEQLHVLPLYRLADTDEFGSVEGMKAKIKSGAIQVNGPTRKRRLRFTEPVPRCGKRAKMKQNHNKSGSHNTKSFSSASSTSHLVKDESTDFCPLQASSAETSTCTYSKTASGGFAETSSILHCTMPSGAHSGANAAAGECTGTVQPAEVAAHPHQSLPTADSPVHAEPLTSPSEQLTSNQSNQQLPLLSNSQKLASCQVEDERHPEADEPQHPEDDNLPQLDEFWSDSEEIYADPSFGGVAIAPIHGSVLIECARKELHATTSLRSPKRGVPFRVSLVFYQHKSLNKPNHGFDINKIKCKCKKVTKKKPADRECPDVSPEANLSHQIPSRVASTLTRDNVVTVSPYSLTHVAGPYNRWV

Biological target: Tet1 (wild type, endogenous in Tet1+/+ ESCs) (mouse (endogenous in V6.5 ESCs)) (UniProt Q3URK3)
Experiment: co-IP; ESC nuclear extracts treated with benzonase; anti-Tet1 antibody crosslinked to Protein G magnetic beads, overnight 4°C; washes 20 mM HEPES pH 7.6, 10% glycerol, 100 mM KCl, 1.5 mM MgCl2, 0.2 mM EDTA; western blot; Tet1-/- ESCs as negative control

B1: Sin3a (endogenous in mouse ESCs) (protein, UniProt Q60520 1-1274)
chain: MKRRLDDQESPVYAAQQRRIPGSTEAFSHQHRVLAPAPPVYEAVSETMQSATGIQYSVAPNYQVSAVPQSSGSHGPAIAAVHSSHHHPTAVQPHGGQVVQSHAHPAPPVAPVQGQQQFQRLKVEDALSYLDQVKLQFGSQPQVYNDFLDIMKEFKSQSIDTPGVISRVSQLFKGHPDLIMGFNTFLPPGYKIEVQTNDMVNVTTPGQVHQIPTHGIQPQPQPPPQHPSQPSSQSAPTPAQPAPQPTAAKVSKPSQLQAHTPASQQTPPLPPYASPRSPPVQPHTPVTISLGTAPSLQNNQPVEFNHAINYVNKIKNRFQGQPDIYKAFLEILHTYQKEQRNAKEAGGNYTPALTEQEVYAQVARLFKNQEDLLSEFGQFLPDANSSVLLSKTTAEKVDSVRNDHGGTVKKPQLNNKPQRPSQNGCQIRRHSGTGATPPVKKKPKLMSLKESSMADASKHGVGTESLFFDKVRKALRSAEAYENFLRCLVIFNQEVISRAELVQLVSPFLGKFPELFNWFKNFLGYKESVHLESFPKERATEGIAMEIDYASCKRLGSSYRALPKSYQQPKCTGRTPLCKEVLNDTWVSFPSWSEDSTFVSSKKTQYEEHIYRCEDERFELDVVLETNLATIRVLEAIQKKLSRLSAEEQAKFRLDNTLGGTSEVIHRKALQRIYADKAADIIDGLRKNPSIAVPIVLKRLKMKEEEWREAQRGFNKVWREQNEKYYLKSLDHQGINFKQNDTKVLRSKSLLNEIESIYDERQEQATEENAGVPVGPHLSLAYEDKQILEDAAALIIHHVKRQTGIQKEDKYKIKQIMHHFIPDLLFAQRGDLSDVEEEEEEEMDVDEATGAPKKHNGVGGSPPKSKLLFSNTAAQKLRGMDEVYNLFYVNNNWYIFMRLHQILCLRLLRICSQAERQIEEENREREWEREVLGIKRDKSDSPAIQLRLKEPMDVDVEDYYPAFLDMVRSLLDGNIDSSQYEDSLREMFTIHAYIAFTMDKLIQSIVRQLQHIVSDEVCVQVTDLYLAENNNGATGGQLNSQTSRSLLESAYQRKAEQLMSDENCFKLMFIQSQGQVQLTVELLDTEEENSDDPVEAERWSDYVERYMSSDTTSPELREHLAQKPVFLPRNLRRIRKCQRGREQQEKEGKEGNSKKTMENVESLDKLECRFKLNSYKMVYVIKSEDYMYRRTALLRAHQSHERVSKRLHQRFQAWVDKWTKEHVPREMAAETSKWLMGEGLEGLVPCTTTCDTETLHFVSINKYRVKYGTVFKAP
- binding: binds
